# Assay results reported in paper PMC7862700.
# The entries are a selection whose mix differs from that of the whole data set. At the low end of the ranking, values are background and their order means little.
# Target: T1, FLI1 (UniProt Q01543)
# T1 sequence: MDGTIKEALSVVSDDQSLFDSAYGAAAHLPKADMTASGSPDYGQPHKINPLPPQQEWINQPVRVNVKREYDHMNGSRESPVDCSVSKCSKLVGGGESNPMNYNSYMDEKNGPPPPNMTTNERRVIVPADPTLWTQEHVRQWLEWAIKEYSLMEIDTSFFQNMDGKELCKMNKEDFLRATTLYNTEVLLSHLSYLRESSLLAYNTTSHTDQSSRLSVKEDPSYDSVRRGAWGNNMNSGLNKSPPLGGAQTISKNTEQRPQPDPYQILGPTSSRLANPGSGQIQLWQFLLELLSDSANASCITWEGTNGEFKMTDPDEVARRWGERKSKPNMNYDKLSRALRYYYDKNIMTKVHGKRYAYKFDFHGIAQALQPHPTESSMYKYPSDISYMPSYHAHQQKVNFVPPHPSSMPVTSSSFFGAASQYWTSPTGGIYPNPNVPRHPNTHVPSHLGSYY
# Test: DAPPL (digital affinity profiling via proximity ligation, sequencing)
# Conditions: 10 mM Tris-HCl pH 7.5, 50 mM NaCl, 1 mM DTT, 4% glycerol, room temperature, 30 min; GST-TFs on glutathione beads, 16-mer random dsDNA library, 0.1% …; high values mean tight binding; double strand, one strand shown; scale: fold enrichment (6-mer frequency, TF over GST control)
row,Sequence,binding signal
1,AAAAAC,1.31
2,CCTTGA,1.26
3,CTACTG,1.31
4,CCGAAA,1.25
5,TAACCA,1.12
6,TTTCGT,1.31
7,ATACAC,1.18
8,CGTCAA,1.2
9,CACATA,1.14
10,ATGGGC,1.28
11,CGTCCT,1.28
12,AATTAC,1.24
13,ACTGAA,1.07
14,ATTTGT,1.36
15,TCTACC,1.54
16,AAGCCT,1.21
17,GCACTC,1.29
18,CCCCTG,1.22
19,TTGTTC,1.5
20,TCGAAC,0.943

# Quoted at random: 2 records from the list
row,Sequence,binding signal
7,ATACAC,1.18
12,AATTAC,1.24

# Further entries follow.

row,Sequence,binding signal
1,GATGTT,1.28
2,CTTTGA,1.29
3,GCCTAA,1.22
4,TTCGAT,1.32
5,TGCCCC,1.13
6,ATTAGG,1.06
7,CAATTT,1.26
8,TCTGCG,1.12
9,TGGTCC,1.25
10,TGATTT,1.29
11,TTATCG,1.17
12,CCGCAT,1.61
13,ACTGAT,1.22
14,TGTGCC,1.17
15,TCCGCG,1.25
16,CGTATA,1.12
17,GCCGAT,1.14
18,TACGAC,1.33
19,AGAAAA,0.978
